{
  "sequences": {"note": "The chains behind the UniProt entries cited, without tags or fusion partners. Where a name states a change or a piece, a line headed by the entry shows the natural chain unless it says otherwise. Residues count along the entry.", "UniProt P10415, residues 1-211": "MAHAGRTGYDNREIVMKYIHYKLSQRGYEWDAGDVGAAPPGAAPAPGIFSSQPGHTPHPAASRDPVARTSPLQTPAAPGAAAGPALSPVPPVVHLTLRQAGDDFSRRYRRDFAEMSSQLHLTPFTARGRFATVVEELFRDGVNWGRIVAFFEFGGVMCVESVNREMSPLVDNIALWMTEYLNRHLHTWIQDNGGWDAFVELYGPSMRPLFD", "UniProt P47929": "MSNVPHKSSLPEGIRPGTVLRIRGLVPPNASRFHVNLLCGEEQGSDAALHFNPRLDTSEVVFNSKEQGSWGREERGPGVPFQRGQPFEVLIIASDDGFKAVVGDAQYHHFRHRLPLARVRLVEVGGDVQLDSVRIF"},
  "source": "patent US20180155432A1",
  "biological_target": "recombinant human Bcl-2 protein fragment (human) (UniProt P10415)",
  "experiment": "low-SDS Western blot with anti-gal-7 or anti-Bcl-2 antibody",
  "note": "Results are given in words; binding and its absence hold for the method and conditions named. Some binding calls cover weakened binding; strength is not graded here.",
  "data": [
    {"substance": "recombinant human galectin-7 (from UniProt P47929 1-136)", "values": [
      {"measurement": "binding", "result": "binds"}
    ]}
  ]
}
